From publication PMC10604625
No constants are given. Whether binding was seen depends on the method and setting. A result given as binding can be weak or reduced; the word gives no strength. Sequences can lack the tags named with a protein.

Key:
[1] = molecular target: glycine-alanine dipeptide repeat protein GA50, yeast two-hybrid fusion (human); assay: two-hybrid; Matchmaker GAL4 direct test: GA50 and SQOR (full length or fragments S1, S2, S3) in pGBKT7 or pGADT7, AH109 and Y187 mated; blue colonies on selective plates
[2] = molecular target: glycine-alanine dipeptide repeat protein GA50, yeast two-hybrid fusion (human); assay: two-hybrid; yeast two-hybrid-based growth assay: diploid yeast in broth with serially diluted irisflorentin (IFT, up to 100 uM), spot assay on non-selective (SD/-Leu/-Trp) or selective (SD/-Ade/-His/-Leu/-Trp) plates, 30 C, 3 days, and OD600 in broth every 12 h for 48 h

| binding [1] | binding [2] | Binder |
| --- | --- | --- |
| no binding |  | SQOR fragment S1 (1-150), yeast two-hybrid fusion (domain or fragment, UniProt Q9Y6N5 1-150) MVPLVAVVSGPRAQLFACLLRLGTQQVGPLQLHTGASHAARNHYEVLVLGGGSGGITMAARMKRKVGAENVAIVEPSERHFYQPIWTLVGAGAKQLSSSGRPTASVIPSGVEWIKARVTELNPDKNCIHTDDDEKISYRYLIIALGIQLD |
| no binding |  | SQOR fragment S2 (151-300), yeast two-hybrid fusion (domain or fragment, UniProt Q9Y6N5 151-300) YEKIKGLPEGFAHPKIGSNYSVKTVEKTWKALQDFKEGNAIFTFPNTPVKCAGAPQKIMYLSEAYFRKTGKRSKANIIFNTSLGAIFGVKKYADALQEIIQERNLTVNYKKNLIEVRADKQEAVFENLDKPGETQVISYEMLHVTPPMSP |
| binds | binds | SQOR fragment S3 (301-450), yeast two-hybrid fusion (domain or fragment, UniProt Q9Y6N5 301-450) PDVLKTSPVADAAGWVDVDKETLQHRRYPNVFGIGDCTNLPTSKTAAAVAAQSGILDRTISVIMKNQTPTKKYDGYTSCPLVTGYNRVILAEFDYKAEPLETFPFDQSKERLSMYLMKADLMPFLYWNMMLRGYWGGPAFLRKLFHLGMS |
